Results deposited as PubChem BioAssay AID1053208 (Peter MacCallum Cancer Centre, 2014).

Assay: 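Synthetic lethal interactions between gene loss and doxorubicin in osteosarcoma cells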 (primary screen)
Cells: mouse osteosarcoma cells, early-passage culture from an engineered mouse model of fibroblastic bone tumour
Reagent: siRNA pool against mouse genes, 40 nM
Time to read-out: about 120 h (48 h before drug, then 72 h with drug)
Treatment: doxorubicin 100 nM for 72 h, roughly 30-40% inhibitory dose
Detection: 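Viability read as ATP luminescence after 72 h of 100 nM doxorubicin or none, duplicate wells averaged, scaled to non-targeting siRNA, then expressed as robust z-scores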
Reading the numbers: viability z-score with doxorubicin: higher = more viable cells under doxorubicin; viability z-score without drug: higher = more viable cells with knock-down alone
Rule for the call: 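Called active if knock-down leaves viability unchanged without drug (z within -2 to 2) but lowers it with doxorubicin (z at or under -2)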
The deposit covers about 17,000 reagents; this is a part drawn at random. Over the whole deposit, 788 (4.7%) were called active. 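Calls rest on z-score classes alone; an extra cut-off of viability at most 70% of control was not applied to them.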 Entries without a mark were called inactive. Reagents against one gene are numbered here. Not all columns of the deposit are shown. No sequences are given here.

The opening 3 records, to show the layout:
gene knocked down,reagent,combined z-score class,viability z-score with doxorubicin,viability z-score without drug
Rxfp3,1,no change with or without drug,1.12,0.84
Socs6,1,no change with or without drug,0.22,-0.84
Sun5,1,no change with or without drug,0.67,-0.51

The list itself, from the first entry:
gene knocked down,reagent,combined z-score class,viability z-score with doxorubicin,viability z-score without drug
Rxfp3,1,no change with or without drug,1.12,0.84
Socs6,1,no change with or without drug,0.22,-0.84
Sun5,1,no change with or without drug,0.67,-0.51
Rpn2,1,no change with or without drug,-1.57,-0.34
Pnoc,1,no change with or without drug,-0.34,-0.17
Cib3,1,no change with or without drug,0.22,-0.84
Syvn1,1,no change with or without drug,-0.9,-1.85
Pgls,1,no change with or without drug,-1.69,0.84
Ube2a,1,no change with or without drug,0.9,0.34
St8sia1,1,no change with or without drug,0.22,0.51
St8sia1,2,no change with or without drug,-1.24,-1.18
Hao2,1,no change with or without drug,0.45,-0.51
H3c7,1,no change with or without drug,-0.45,0.17
Isy1,1,low cell count with and without drug,-5.4,-5.9
Platr26,1,no change with or without drug,0.9,0.84
Sult2a8,1,no change with or without drug,0.45,-0.17
Mta3,1,no change with or without drug,-0.67,0
Osr2,1,no change with or without drug,-1.8,-1.52
Fam161a,1,low cell count with doxorubicin only (active),-2.36,-0.17
Proser3,1,no change with or without drug,-0.9,-0.51
Ttll8,1,no change with or without drug,0.45,0
9330155M09Rik,1,no change with or without drug,-0.67,-1.52
Zbtb8b,1,no change with or without drug,-1.57,0.17
Prdx2,1,no change with or without drug,0.34,-0.17
Gng11,1,high cell count without drug only,0.11,2.02
Pex39,1,no change with or without drug,-0.11,1.01
Or10g1b,1,no change with or without drug,0.56,-0.51
Yipf1,1,no change with or without drug,1.12,0
Phxr4,1,low cell count with doxorubicin only (active),-2.47,-1.18
Or5g29,1,no change with or without drug,-1.24,0.34
Nherf1,1,no change with or without drug,0.11,-0.67
Hmgn3,1,no change with or without drug,-0.56,-1.18
Gpbp1l1,1,no change with or without drug,-0.45,1.18
Pola2,1,no change with or without drug,0.45,-0.84
